In PubChem BioAssay (NCATS):
The inconclusive results got no clear call from the source; some entries with a clear call stand among them for comparison. Potencies of inconclusive entries are doubtful fits and often do not repeat. Active and inactive are the calls of the source. Calls come from the whole dose curve; as a rule, active = well fitted cell-killing curve with a large enough effect; inconclusive = small, poorly fitted or top-dose-only effect, or effect the other way; inactive = no such curve, though single readings can be large or run the other way.

Assays:
[1] = Quantitative High-Throughput drug screen in 47 multiple myeloma cell lines against the NCATS MIPE library collection: LP1_DSMZ cell viability assay (AID 1918982); note: nearly all actives have a fitted effect of over 35% in size
In short: (§1)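 Readout: median RLU from CellTiter-Glo after 5 min at room temperature. Preceding step was 48 h drug treatment of 500 cells/well at 37 °C, 5% CO2, with DMSO-only and media-only control wells.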

[2] = Quantitative High-Throughput drug screen in 47 multiple myeloma cell lines against the NCATS MIPE library collection: KMS28PE_JCRB cell viability assay (AID 1918983); note: nearly all actives have a fitted effect of over 35% in size
In short: as §1

[3] = Quantitative High-Throughput drug screen in 47 multiple myeloma cell lines against the NCATS MIPE library collection: L363_DSMZ cell viability assay (AID 1918984); conditions: L363 myeloma viability, CellTiter-Glo ATP luminescence, 48 h; viability (% of control): at 45.8 µM (top of the series); note: nearly all actives have a fitted effect of over 40% in size
In short: as §1

[4] = Quantitative High-Throughput drug screen in 47 multiple myeloma cell lines against the NCATS MIPE library collection: KMS34_JCRB cell viability assay (AID 1918985); note: nearly all actives have a fitted effect of over 40% in size
In short: as §1

[5] = Quantitative High-Throughput drug screen in 47 multiple myeloma cell lines against the NCATS MIPE library collection: OCIMY7_PLB cell viability assay (AID 1918987); conditions: OCI-MY7 myeloma viability, CellTiter-Glo ATP, 48 h; viability (% of DMSO): at 45.8 µM (top of the series); note: nearly all actives have a fitted effect of over 65% in size
In short: as §1

[6] = Quantitative High-Throughput drug screen in 47 multiple myeloma cell lines against the NCATS MIPE library collection: OCIMY5_PLB cell viability assay (AID 1918988); note: nearly all actives have a fitted effect of over 65% in size
In short: as §1

[7] = Quantitative High-Throughput drug screen in 47 multiple myeloma cell lines against the NCATS MIPE library collection: SKMM1_PLB cell viability assay (AID 1919863); conditions: SKMM1 myeloma viability, CellTiter-Glo ATP, 48 h; viability: stronger effect = lower value; note: nearly all actives have a fitted effect of over 35% in size
In short: as §1

[8] = Quantitative High-Throughput drug screen in 47 multiple myeloma cell lines against the NCATS MIPE library collection: U266_ATCC cell viability assay (AID 1919864); conditions: U266 myeloma viability, CellTiter-Glo ATP luminescence, 48 h; viability (% of DMSO control): at 45.8 µM (top of the series); note: nearly all actives have a fitted effect of over 35% in size
In short: as §1

[9] = Quantitative High-Throughput drug screen in 47 multiple myeloma cell lines against the NCATS MIPE library collection: XG6_PLB cell viability assay (AID 1919865); conditions: XG6 myeloma viability, CellTiter-Glo ATP luminescence, 48 h; viability (% of control): at 45.8 µM (top of the series); note: nearly all actives have a fitted effect of over 40% in size
In short: as §1

[10] = Quantitative High-Throughput drug screen in 47 multiple myeloma cell lines against the NCATS MIPE library collection: XG1_PLB cell viability assay (AID 1919866); conditions: CellTiter-Glo ATP, 48 h; viability: at 45.8 µM (top of the series); note: nearly all actives have a fitted effect of over 35% in size
In short: as §1

[11] = Quantitative High-Throughput drug screen in 47 multiple myeloma cell lines against the NCATS MIPE library collection: UTMC2_PLB cell viability assay (AID 1919868); conditions: CellTiter-Glo ATP luminescence, 48 h; viability (% of DMSO control): at 45.8 µM (top of the series); note: nearly all actives have a fitted effect of over 55% in size
In short: as §1

[12] = Quantitative High-Throughput drug screen in 47 multiple myeloma cell lines against the NCATS MIPE library collection: OPM2_DSMZ cell viability assay (AID 1919872); note: nearly all actives have a fitted effect of over 30% in size
In short: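 Luminescent ATP measurement with CellTiter-Glo gives viability, scaled between DMSO-only wells (100%) and media-only wells (0%). Cells, 500 per well, faced library compounds for 48 hours at 37C.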

[13] = Quantitative High-Throughput drug screen in 47 multiple myeloma cell lines against the NCATS MIPE library collection: VP6_DJ cell viability assay (AID 1919867); conditions: ATP luminescence, 48 h; viability (% of DMSO): at 45.8 µM (top of the series); note: nearly all actives have a fitted effect of over 40% in size
In short: as §1

[14] = Quantitative High-Throughput drug screen in 47 multiple myeloma cell lines against the NCATS MIPE library collection: KMS28BM_JCRB cell viability assay (AID 1919874); note: nearly all actives have a fitted effect of over 35% in size
In short: as §1

[15] = Quantitative High-Throughput drug screen in 47 multiple myeloma cell lines against the NCATS MIPE library collection: PE2_PLB cell viability assay (AID 1919869); conditions: PE2_PLB myeloma cells viability, ATP luminescence, 48 h; viability (% of control): at 45.8 µM (top of the series); note: nearly all actives have a fitted effect of over 35% in size
In short: as §1

[16] = Quantitative High-Throughput drug screen in 47 multiple myeloma cell lines against the NCATS MIPE library collection: KMS11_JCRBsus cell viability assay (AID 1919873); note: nearly all actives have a fitted effect of over 50% in size
In short: as §1

[17] = Quantitative High-Throughput drug screen in 47 multiple myeloma cell lines against the NCATS MIPE library collection: OPM1_PLB cell viability assay (AID 1918989); note: nearly all actives have a fitted effect of over 40% in size
In short: as §1

[18] = Quantitative High-Throughput drug screen in 47 multiple myeloma cell lines against the NCATS MIPE library collection: PCM6_Riken cell viability assay (AID 1919870); note: nearly all actives have a fitted effect of over 30% in size
In short: as §1

[19] = Quantitative High-Throughput drug screen in 47 multiple myeloma cell lines against the NCATS MIPE library collection: RPMI8226_ATCC cell viability assay (AID 1919871); conditions: RPMI8226 myeloma viability, CellTiter-Glo ATP luminescence, 48 h; viability (% of control): at 45.8 µM (top of the series); note: nearly all actives have a fitted effect of over 30% in size
In short: as §1
Potency is the fitted concentration of half-maximal effect.

COc1ccc(CC2NCCc3cc(OC)c(OC)cc32)cc1OC (centres undefined)
inconclusive: Potency [3] 0.0332 µM [rising, full curve, poor fit] | Potency [4] 0.0037 µM [rising, full curve] | Potency [5] 33.2 µM [cytotoxic, partial curve, poor fit] | Potency [6] 23.5 µM [cytotoxic, single point] | Potency [9] 6.62 µM [cytotoxic, full curve] | Potency [10] 9.35 µM [cytotoxic, full curve] | Potency [11] 18.7 µM [cytotoxic, partial curve, poor fit]
inactive: Potency [1] | Potency [2] | viability [7] 129% | Potency [8] | Potency [12]

CN[C@@H]1Cc2cccc3[nH]c(=O)n(c23)C1
inactive: Potency [2] | Potency [8] | Potency [10] | Potency [11] | Potency [14]
inconclusive: Potency [1] 23.5 µM [cytotoxic, single point] | Potency [3] 11.8 µM [rising, single point] | Potency [4] 33.2 µM [cytotoxic, single point] | Potency [5] 0.332 µM [cytotoxic, full curve, poor fit] | Potency [9] 37.2 µM [cytotoxic, single point] | Potency [13] 29.6 µM [cytotoxic, single point]

COc1ccc2c(c1OC)CN1CCc3cc4c(cc3C1C2)OCO4 (centres undefined)
inactive: Potency [4] | Potency [5] | Potency [12]
active: Potency [3] 5.9 µM | Potency [11] 2.09 µM
inconclusive: Potency [1] 29.6 µM [cytotoxic, partial curve, poor fit] | Potency [2] 23.5 µM [cytotoxic, single point] | Potency [6] 16.6 µM [cytotoxic, partial curve, poor fit] | Potency [8] 20.9 µM [cytotoxic, single point] | Potency [15] 16.6 µM [cytotoxic, partial curve, poor fit] | Potency [16] 23.5 µM [cytotoxic, partial curve]

O=P1(NCCCl)OCCCN1CCCl (centres undefined)
inactive: Potency [18]
active: Potency [5] 8.33 µM | Potency [17] 16.6 µM | Potency [9] 16.6 µM
inconclusive: Potency [1] 23.5 µM [cytotoxic, single point] | Potency [2] 26.4 µM [cytotoxic, single point] | Potency [3] 13.2 µM [cytotoxic, partial curve] | Potency [4] 37.2 µM [cytotoxic, single point] | Potency [7] 18.7 µM [cytotoxic, partial curve, poor fit] | Potency [8] 0.0066 µM [rising, full curve, poor fit] | Potency [10] 10.5 µM [cytotoxic, partial curve] | Potency [11] 0.0935 µM [cytotoxic, full curve, poor fit] | Potency [15] 8.33 µM [cytotoxic, full curve] | Potency [19] 37.2 µM [cytotoxic, single point] | Potency [16] 37.2 µM [cytotoxic, single point] | Potency [14] 23.5 µM [cytotoxic, partial curve]

COc1ccc(C(=O)N2CCCC2=O)cc1
inactive: viability [7] 101% | Potency [8] | Potency [9] | Potency [15]
inconclusive: Potency [1] 2.64 µM [cytotoxic, full curve, poor fit] | Potency [2] 2.64 µM [cytotoxic, full curve, poor fit] | Potency [3] 2.35 µM [cytotoxic, partial curve, poor fit] | Potency [4] 0.743 µM [cytotoxic, partial curve, poor fit] | Potency [5] 4.18 µM [cytotoxic, partial curve, poor fit] | Potency [17] 11.8 µM [cytotoxic, partial curve, poor fit] | Potency [11] 3.72 µM [cytotoxic, full curve, poor fit] | Potency [18] 1.32 µM [cytotoxic, full curve, poor fit] | Potency [12] 2.96 µM [cytotoxic, partial curve, poor fit]

Cc1nc(-c2ccc(-c3ccc(C(=O)N4CCc5cc6c(cc54)C4(CCN(C)CC4)CO6)cc3)c(C)c2)no1
inconclusive: Potency [2] 0.148 µM [rising, full curve] | Potency [3] 0.0047 µM [rising, full curve, poor fit] | Potency [4] 0.0042 µM [rising, full curve, poor fit] | Potency [5] 0.0047 µM [rising, full curve, poor fit] | Potency [6] 0.001 µM [cytotoxic] | Potency [8] 1.48 µM [rising, full curve, poor fit] | Potency [9] 5.9 µM [cytotoxic, partial curve, poor fit] | Potency [11] 0.0105 µM [rising, full curve, poor fit] | Potency [18] 0.001 µM
inactive: Potency [1] | viability [7] 124% | Potency [10] | Potency [15] | Potency [14]

CN(C)NC(=O)CCC(=O)O
active: Potency [11] 0.0372 µM
inactive: Potency [1] | Potency [3] | Potency [4] | Potency [19]
inconclusive: Potency [2] 2.09 µM [cytotoxic, partial curve, poor fit] | Potency [5] 0.059 µM [rising, full curve, poor fit] | Potency [6] 4.69 µM [cytotoxic, partial curve, poor fit] | Potency [8] 18.7 µM [cytotoxic, partial curve, poor fit] | Potency [9] 26.4 µM [cytotoxic, partial curve] | Potency [15] 20.9 µM [cytotoxic, single point] | Potency [14] 18.7 µM [cytotoxic, partial curve, poor fit]

O=C(O)c1nn(Cc2ccc(Cl)cc2Cl)c2ccccc12
inactive: Potency [1] | Potency [3] | Potency [4] | Potency [9] | Potency [15] | Potency [12] | Potency [16]
inconclusive: Potency [2] 14.8 µM [cytotoxic, partial curve, poor fit] | Potency [5] 5.9 µM [cytotoxic, partial curve, poor fit] | Potency [6] 18.7 µM [cytotoxic, partial curve, poor fit] | Potency [17] 0.0209 µM [rising, full curve, poor fit] | Potency [8] 20.9 µM [cytotoxic, single point] | Potency [10] 0.0332 µM [rising, full curve, poor fit] | Potency [11] 0.0132 µM [rising, full curve, poor fit] | Potency [18] 0.0235 µM [rising, full curve] | Potency [14] 0.0033 µM [cytotoxic, full curve, poor fit]

O=C(NCC1CCOCC1)c1cnc(Nc2ccc(Cl)cc2Cl)nc1C(F)(F)F
inactive: Potency [2] | Potency [4] | viability [7] 104% | Potency [12]
inconclusive: Potency [1] 20.9 µM [cytotoxic, partial curve, poor fit] | Potency [3] 5.26 µM [cytotoxic, partial curve, poor fit] | Potency [5] 7.43 µM [cytotoxic, partial curve, poor fit] | Potency [6] 37.2 µM [cytotoxic, single point] | Potency [10] 11.8 µM [cytotoxic, single point] | Potency [11] 0.0132 µM [rising, full curve, poor fit] | Potency [15] 10.5 µM [cytotoxic, full curve, poor fit]

COc1ccc(C(=O)c2c(C)n(CCN3CCOCC3)c3cc(I)ccc23)cc1
inconclusive: Potency [1] 23.5 µM [cytotoxic, single point] | Potency [2] 26.4 µM [cytotoxic, single point] | Potency [8] 0.418 µM [cytotoxic, full curve, poor fit] | Potency [11] 23.5 µM [cytotoxic, partial curve, poor fit] | Potency [14] 20.9 µM [cytotoxic, partial curve, poor fit]
active: Potency [4] 20.9 µM | Potency [5] 5.9 µM | Potency [7] 16.6 µM | Potency [16] 23.5 µM

CCOC(=O)c1cncn1[C@H](C)c1ccccc1
inconclusive: Potency [2] 14.8 µM [cytotoxic, partial curve, poor fit] | Potency [4] 3.32 µM [cytotoxic, full curve, poor fit] | Potency [17] 11.8 µM [cytotoxic, single point] | Potency [11] 0.148 µM [rising, full curve, poor fit] | Potency [16] 0.0012 µM [rising, full curve, poor fit]
inactive: Potency [1] | Potency [5] | Potency [6] | Potency [8] | Potency [9] | Potency [10] | Potency [13] | Potency [18] | Potency [12] | Potency [14]
active: Potency [7] 7.43 µM

C[C@]12CC[C@H]3[C@@H](CCC4=CC(=O)CC[C@@]43C)[C@H]1CC[C@H]2OC(=O)CCC1CCCC1
inactive: Potency [2] | Potency [13] | Potency [12] | Potency [14]
inconclusive: Potency [1] 33.2 µM [cytotoxic, single point] | Potency [4] 29.6 µM [cytotoxic, single point] | Potency [5] 16.6 µM [cytotoxic, partial curve, poor fit] | Potency [17] 0.935 µM [rising, partial curve, poor fit] | Potency [9] 5.26 µM [cytotoxic, partial curve, poor fit] | Potency [11] 0.0021 µM [cytotoxic, full curve, poor fit] | Potency [15] 37.2 µM [cytotoxic, single point] | Potency [19] 26.4 µM [cytotoxic, single point]
active: Potency [6] 20.9 µM
